Experimental data from patent US20120095085.

Protein sequences, listed by entry. Tags and fused reporters are not part of them. Lines headed by an entry give the natural chain unless they say otherwise; changes in a name come on top.
UniProt Q9P126: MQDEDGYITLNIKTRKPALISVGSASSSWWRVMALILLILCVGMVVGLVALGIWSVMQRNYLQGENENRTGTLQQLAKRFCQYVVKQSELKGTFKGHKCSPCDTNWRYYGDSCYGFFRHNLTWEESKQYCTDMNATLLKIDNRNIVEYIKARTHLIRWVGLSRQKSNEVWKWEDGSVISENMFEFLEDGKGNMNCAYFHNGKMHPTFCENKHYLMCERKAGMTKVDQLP

Target: CLEC-2 extracellular domain (Homo sapiens) (UniProt Q9P126)
Assay: FP filter
Conditions: 2'-F C and U; 2'-OH A and G; 3' idT; buffer F, 37 C; purified recombinant protein; protein details: N-terminal His10, R&D Systems 1718-CL-050; label: 32P 5' …; variant of S2-20

Sequence	Kd
GAUGCGGACUGGGCUCAUAUUCCCGCGCAUC [RB587]	2.9 nM

Same assay, conditions: 2'-F C and U; 2'-OH A and G; 3' idT; negative control, does not bind; buffer F, 37 C; purified recombinant protein; protein details: N-terminal His10, R&D Systems 1718-CL-050; label: 32P 5' end; variant of RB587

Sequence	Kd
GAUGCGCACUGGGCUCAUAUUCCCGCGCAUC [RB588]	> 60 nM

Same assay, conditions: 2'-F C and U; 2'-OH A and G; Kd listed as dead; binding abolished; buffer F, 37 C; purified recombinant protein; protein details: N-terminal His10, R&D Systems 1718-CL-050; label: 32P 5' end; variant of …

Sequence	binding result
GGGAGGACGAUGCGGACUGGGCUCAUAUUCCCG [S2-20 T5]	no binding

Same assay, conditions: 2'-F C and U; 2'-OH A and G; buffer F, 37 C; purified recombinant protein; protein details: N-terminal His10, R&D Systems 1718-CL-050; label: 32P 5' end; variant of S2-20

Sequence	Kd
GGGAGAUGGGACUGGGCUCAUAUUCCCGCCAUC [S2-20 T9]	18.7 nM
GGGAGGACGAUGCGGACUGGGCUCAUAUUCCCGCGCAUCUUACUA [S2-20 T3]	2.2 nM
GGGAGGACGAUGCGGACUGGGCUCAUAUUCCCGCGCAUCUUACUACCUC [S2-20 T2]	2.8 nM
GGGAGAUGCGGACUGGGCUCAUAUUCCCGCGCAUC [S2-20 T6]	1 nM
GGGAGAGCGGACUGGGCUCAUAUUCCCGCGCUC [S2-20 T7]	3 nM
GGGAUGCGGACUGGGCUCAUAUUCCCGCGCAUC [S2-20 T10]	2.2 nM
GGGAGGACGAUGCGGACUGGGCUCAUAUUCCCGCGCAUC [S2-20 T4]	1.4 nM
GGGAGAUCGGACUGGGCUCAUAUUCCCGCGAUC [S2-20 T8]	1.6 nM
GGGAGGACGAUGCGGACUGGGCUCAUAUUCCCGCGCAUCUUACUACCUCGGUUAU [S2-20 T1]	4.6 nM

Same assay, conditions: 2'-F C and U; 2'-OH A and G; buffer F, 37 C; purified recombinant protein; protein details: N-terminal His10, R&D Systems 1718-CL-050; label: 32P 5' end; variant of S2-20 T4

Sequence	Kd
GGGAGGACGAUGCGGACUGGGCUCAGAUUCCCGCGCAUC [S2-20 T4 Mut32]	12.4 nM
GGGAGGACGAUGCGGUCUGGGCUCAUAUUCCCGCGCAUC [S2-20 T4 Mut30]	6.8 nM
GGGAGGACGAUGCGGGCUGGGCUCAUAUUCCCGCGCAUC [S2-20 T4 Mut31]	4.3 nM

Same assay, conditions: 2'-F C and U; 2'-OH A and G; buffer F, 37 C; purified recombinant protein; protein details: N-terminal His10, R&D Systems 1718-CL-050; label: 32P 5' end; variant of S2-20 T6

Sequence	Kd
GGGAGAUGCGGACUGGGCUCAUAAACCCGCGCAUC [S2-20 Mut5]	> 60 nM
GGGAGAUGCGGACUGGGCUGUUAUUCCCGCGCAUC [S2-20 Mut3]	> 60 nM
GGGAGAUGCGGUCUGGGCUCAUAUUCCCGCGCAUC [S2-20 Mut8]	3.5 nM
GGGAGAUGCGGAGUGGGCUCAUAUUCCCGCGCAUC [S2-20 Mut6]	> 60 nM
GGGAGAUGCGGACUGGGCUCAUAUUCCCGCGCAUCUC [S2-20 T6 ext8bp]	3.9 nM
GGGAGAUGCGGACUGGGCUCAAUUUCCCGCGCAUC [S2-20 Mut4]	> 60 nM
GGGAGAUGCGCUCUGGGCUCAUAUUCCCGCGCAUC [S2-20 Mut1]	> 60 nM
GGGAGAUGCGGACUGGGCUCAUAUUCCCGCGCAUCUCCC [S2-20 T6 ext10bp]	4.6 nM
GGGAGAUGCGGACUGGGGACAUAUUCCCGCGCAUC [S2-20 Mut2]	> 60 nM

Same assay, conditions: 2'-F C and U; 2'-OH A and G; buffer F, 37 C; purified recombinant protein; protein details: N-terminal His10, R&D Systems 1718-CL-050; label: 32P 5' end; variant of S2-20 …

Sequence	Kd
GGGAUGCGUACUGGGCUCAUAUUCCCGCGCAUC [S2-20 T4 Mut33]	> 60 nM
GGGAUGCGGACUGGGGUCAUAUUCCCGCGCAUC [S2-20 T10 Mut9]	> 60 nM
GGGAUGCGGACUGGGCUCAUACUCCCGCGCAUC [S2-20 T10 Mut23]	6.7 nM
GGGAUGCGGACUGGGCUCAUUUUCCCGCGCAUC [S2-20 T10 Mut14]	> 60 nM
GGGAUGCGGACUGGGCCCAUAUUCCCGCGCAUC [S2-20 T10 Mut18]	51.7 nM
GGGAUGCGGACUGGGUUCAUAUUCCCGCGCAUC [S2-20 T10 Mut17]	8.8 nM
GGGAUGCGGACUGGGCUCAAAUUCCCGCGCAUC [S2-20 T10 Mut13]	2.4 nM
GGGAUGCGGACUGGGCUCACAUUCCCGCGCAUC [S2-20 T10 Mut21]	1.7 nM
GGGAUGCGGACUGGGCUCAUAAUCCCGCGCAUC [S2-20 T10 Mut15]	30 nM
GGGAUGCGGACUGGGCUCAUAUCCCCGCGCAUC [S2-20 T10 Mut24]	> 60 nM
GGGAUGCGGACUGGGCUCUAUUCCCGCGCAUC [S2-20 T10 Mut28]	> 60 nM
GGGAUGCGGACUGGGCUCAUUUCCCGCGCAUC [S2-20 T10 Mut29]	> 60 nM
GGGAUGCGGACUGGGCACAUAUUCCCGCGCAUC [S2-20 T10 Mut10]	> 60 nM
GGGAUGCGGACUGGGCUCGUAUUCCCGCGCAUC [S2-20 T10 Mut20]	1.2 nM
GGGAUGCGGACUGGGCUCAUCUUCCCGCGCAUC [S2-20 T10 Mut27]	> 60 nM
GGGAUGCGGACUGGGCUCAAUUCCCGCGCAUC [S2-20 T4 Mut37]	> 60 nM
GGGAUGCGGACUGGGCUGAUAUUCCCGCGCAUC [S2-20 T10 Mut11]	> 60 nM
GGGAUGCGGACUGGGCUCAUGUUCCCGCGCAUC [S2-20 T10 Mut22]	5.6 nM
GGGAUGCGGACUGGGCUUAUAUUCCCGCGCAUC [S2-20 T10 Mut19]	5.7 nM
GGGAUGCGGAUUGGGCUCAUAUUCCCGCGCAUC [S2-20 T10 Mut26]	> 60 nM
GGGAUGCGGACUGGGCUCUUAUUCCCGCGCAUC [S2-20 T10 Mut12]	2.4 nM
GGGAUGCGGACUGGGCUCAUAUACCCGCGCAUC [S2-20 T10 Mut16]	> 60 nM
GGGAUGCGAACUGGGCUCAUAUUCCCGCGCAUC [S2-20 T10 Mut25]	> 60 nM

Same assay, conditions: 2'-F C and U; 2'-OH A and G; essentially no specific binding; buffer F, 37 C; purified recombinant protein; protein details: N-terminal His10, R&D Systems 1718-CL-050; label: 32P 5' end; variant of S2-20 T6

Sequence	Kd
GGGAGAUGCGCACUGGGCUCAUAUUCCCGCGCAUC [S2-20 Mut7]	> 60 nM

Same assay, conditions: 2'-F C and U; 2'-OH A and G; purified recombinant protein; protein details: N-terminal His10, R&D Systems 1718-CL-050; label: 32P 5' end

Sequence	Kd
GGGAGGACGAUGCGGACUGGGCUCAUAUUCCCGCGCAUCUUACUACCUCGGUUAUCAGACGACUCGCUGAGGAUCCGAGA [S2-20]	1.4 nM

Same assay, conditions: 2'-F C and U; 2'-OH A and G; stem 2 U-G to C-G; buffer F, 37 C; purified recombinant protein; protein details: N-terminal His10, R&D Systems 1718-CL-050; label: 32P 5' end; variant of S2-20 T10

Sequence	Kd
GGGAUGCGGACCGGGCUCAUAUUCCCGCGCAUC [S2-20 T11]	66 nM

Target: CLEC-2 (on human platelets) (Homo sapiens) (UniProt Q9P126)
Assay: activity in cells
Conditions: 2'-F C and U; 2'-OH A and G; 3' idT; essentially full inhibition of rhodocytin-induced washed platelet aggregation at 0.5 uM; protein on the cell surface; variant of S2-20

Sequence	functional effect of the aptamer
GAUGCGGACUGGGCUCAUAUUCCCGCGCAUC [RB587]	active

Same assay, conditions: 2'-F C and U; 2'-OH A and G; 3' idT; no inhibition of rhodocytin-induced P-selectin expression at 2 uM; protein on the cell surface; variant of RB587

Sequence	functional effect of the aptamer
GAUGCGCACUGGGCUCAUAUUCCCGCGCAUC [RB588]	not active

Same assay, conditions: 2'-F C and U; 2'-OH A and G; essentially full inhibition of rhodocytin-induced washed platelet aggregation at 0.5 uM; protein on the cell surface

Sequence	functional effect of the aptamer
GGGAGGACGAUGCGGACUGGGCUCAUAUUCCCGCGCAUCUUACUACCUCGGUUAUCAGACGACUCGCUGAGGAUCCGAGA [S2-20]	active

Same assay, conditions: 2'-F C and U; 2'-OH A and G; no inhibition of rhodocytin-induced P-selectin expression at 2 uM; protein on the cell surface; variant of S2-20

Sequence	functional effect of the aptamer
GGGAGGACGAUGCGGACUGGGCUCAUAUUCCCG [S2-20 T5]	not active

Same assay, conditions: 2'-F C and U; 2'-OH A and G; reduces rhodocytin-induced P-selectin expression at 2 uM; protein on the cell surface; variant of S2-20

Sequence	functional effect of the aptamer
GGGAGAUGCGGACUGGGCUCAUAUUCCCGCGCAUC [S2-20 T6]	active
GGGAGGACGAUGCGGACUGGGCUCAUAUUCCCGCGCAUC [S2-20 T4]	active

For at least one entry, the source does not settle the construct or the ends of the probe. No signal at the amounts used counts as a negative.
